# Measurements: the supplement of paper PMC4604168 (melanoma cell lines)
# This is one part of the list. Many values rest on one well or one pass, so single values are uncertain.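 Cells were imaged in 1,536-well plates, and nuclei stained with an antibody against cleaved PARP were counted against all DNA-stained nuclei to give the apoptosis fraction. Screening doses were chosen to leave most cells alive, and resting and induced cleaved-PARP levels differ strongly between cell lines.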
# Assays:
# Assay in all cases: cleaved PARP positive nuclei fraction relative to DMSO control; melanoma cells; higher = more apoptosis
# Settings in all cases: library dose: low library concentration; 72 h
# MZ2-MEL = test system: MZ2-MEL
# MeWo = test system: MeWo
# RPMI7951 = test system: RPMI7951
# RVH-421 = test system: RVH-421
# SkMel28 = test system: SkMel28
# SkMel2 = test system: SkMel2
# SkMel30 = test system: SkMel30
# SkMel5 = test system: SkMel5
# UACC257 = test system: UACC257
# UACC62 = test system: UACC62
# WM115 = test system: WM115
# WM1716 = test system: WM1716
# WM1745 = test system: WM1745
# WM3526 = test system: WM3526
# WM3619 = test system: WM3619
# WM451Lu = test system: WM451Lu
SMILES,cleaved PARP positive nuclei fraction (MZ2-MEL),cleaved PARP positive nuclei fraction (MeWo),cleaved PARP positive nuclei fraction (RPMI7951),cleaved PARP positive nuclei fraction (RVH-421),cleaved PARP positive nuclei fraction (SkMel28),cleaved PARP positive nuclei fraction (SkMel2),cleaved PARP positive nuclei fraction (SkMel30),cleaved PARP positive nuclei fraction (SkMel5),cleaved PARP positive nuclei fraction (UACC257),cleaved PARP positive nuclei fraction (UACC62),cleaved PARP positive nuclei fraction (WM115),cleaved PARP positive nuclei fraction (WM1716),cleaved PARP positive nuclei fraction (WM1745),cleaved PARP positive nuclei fraction (WM3526),cleaved PARP positive nuclei fraction (WM3619),cleaved PARP positive nuclei fraction (WM451Lu)
"O=C(O)c1ccc2c(c1)nc(Nc1cccc(Cl)c1)c1ccncc12 + CC(C)CCN1c2nc(Nc3cc(F)c(O)c(F)c3)ncc2N(C)C(=O)C1C [BID1870] (first compound 0.4 µM, partner dose 0.2 µM)",149%,183%,289%,75.7%,151%,134%,167%,91.3%,118%,120%,477%,137%,88%,113%,82.8%,40.6%
"O=C(O)[C@@H]1[O][Sb](=[O])([O][Sb]2(=[O])[O][C@H]([C@H](O)CO)[C@H](O)[C@H](C(=O)O)[O]2)[O][C@H]([C@H](O)CO)[C@@H]1O (stereo partly drawn) [stibogluconate] + C=CCn1c(=O)c2cnc(Nc3ccc(N4CCN(C)CC4)cc3)nc2n1-c1cccc(C(C)(C)O)n1 [MK1775] (first compound 2 µM, partner dose 0.02 µM)",49.6%,223%,39.6%,50.4%,144%,121%,69.8%,35%,169%,230%,158%,221%,160%,21.8%,108%,23.3%
"O=C(O)[C@@H]1[O][Sb](=[O])([O][Sb]2(=[O])[O][C@H]([C@H](O)CO)[C@H](O)[C@H](C(=O)O)[O]2)[O][C@H]([C@H](O)CO)[C@@H]1O (stereo partly drawn) [stibogluconate] + COC(=O)c1sccc1S(=O)(=O)Nc1ccc(Nc2ccccc2)cc1OC [GSK0660] (first compound 2 µM, partner dose 1 µM)",106%,103%,126%,68.8%,147%,42.9%,26.2%,67.8%,284%,78.6%,46.4%,127%,83.9%,132%,72%,59.5%
"O=C(O)[C@@H]1[O][Sb](=[O])([O][Sb]2(=[O])[O][C@H]([C@H](O)CO)[C@H](O)[C@H](C(=O)O)[O]2)[O][C@H]([C@H](O)CO)[C@@H]1O (stereo partly drawn) [stibogluconate] + Cn1cc(/C=C2\C(=O)Nc3cccnc32)c2ccccc21 [GW441756] (first compound 2 µM, partner dose 0.4 µM)",85.3%,71.1%,198%,94.7%,38.6%,22.9%,505%,82.6%,69.9%,50.2%,25.6%,92.4%,92%,70.6%,83.8%,90.3%
"CCCS(=O)(=O)Nc1ccc(F)c(C(=O)c2c[nH]c3ncc(Cl)cc23)c1F + CC(C)CCN1c2nc(Nc3cc(F)c(O)c(F)c3)ncc2N(C)C(=O)C1C [BID1870] (first compound 0.08 µM, partner dose 0.2 µM)",108%,50.6%,85.2%,34%,103%,139%,30%,63.7%,118%,204%,136%,34.2%,87.1%,287%,86.3%,28.4%
"Cn1c(=O)n(-c2ccc(C(C)(C)C#N)cc2)c2c3cc(-c4cnc5ccccc5c4)ccc3ncc21 + COc1ccc(COc2ccc(Cc3cnc(N)nc3N)cc2OC)cc1 [GW2580] (first compound 0.004 µM, partner dose 1 µM)",60.2%,21.8%,74.5%,189%,130%,48.4%,19.5%,72.5%,159%,91.3%,58.6%,26.4%,81.7%,27.2%,93.4%,30.2%
"CC(C)C[C@H](NC(=O)[C@H](Cc1ccccc1)NC(=O)c1cnccn1)B(O)O [Bortezomib] + O=C(Nc1cccc(Cl)c1)Nc1ncc(CCNc2ncnc3ccsc23)s1 [SNS314] (first compound 0.001 µM, partner dose 0.0008 µM)",120%,47.9%,120%,61.9%,83.1%,68.1%,156%,111%,63.7%,73.4%,305%,690%,151%,113%,286%,223%
"CCCS(=O)(=O)Nc1ccc(F)c(C(=O)c2c[nH]c3ncc(Cl)cc23)c1F + O=C(Nc1cccc(Cl)c1)Nc1ncc(CCNc2ncnc3ccsc23)s1 [SNS314] (first compound 0.08 µM, partner dose 0.0008 µM)",109%,49.1%,50.6%,45.1%,74%,89.1%,21.7%,50.5%,66.3%,180%,54%,90.3%,101%,83.1%,103%,46.1%
"Nc1nc(F)nc2c1ncn2[C@@H]1O[C@H](CO)[C@@H](O)[C@@H]1O [fludarabine] + N#Cc1c(O)c2c(-c3ccc(-c4ccccc4O)cc3)csc2[nH]c1=O [A769662] (first compound 0.2 µM, partner dose 2 µM)",119%,985%,90.4%,79.1%,220%,735%,542%,118%,49.8%,487%,35%,51.3%,91.9%,640%,94%,101%
"Nc1nc(F)nc2c1ncn2[C@@H]1O[C@H](CO)[C@@H](O)[C@@H]1O [fludarabine] + O=C1NC(=O)/C(=C/c2ccc(-c3ccc(F)cc3O)o2)S1 [AS252424] (first compound 0.2 µM, partner dose 1 µM)",142%,749%,71.9%,57.4%,39.8%,416%,2840%,268%,203%,116%,126%,68%,103%,1700%,103%,681%
"C=C(c1ccc(C(=O)O)cc1)c1cc2c(cc1C)C(C)(C)CCC2(C)C [Bexarotene] + O=C(Nc1cccc(Cl)c1)Nc1ncc(CCNc2ncnc3ccsc23)s1 [SNS314] (first compound 2 µM, partner dose 0.0008 µM)",149%,114%,251%,127%,85.6%,161%,59.9%,51.7%,104%,162%,53%,43.5%,110%,90.3%,121%,55.7%
"CC(C)C[C@H](NC(=O)[C@H](Cc1ccccc1)NC(=O)c1cnccn1)B(O)O [Bortezomib] + COc1cc2c(Oc3ccc4[nH]c(C)cc4c3F)ncnc2cc1OCCCN1CCCC1 [cediranib] (first compound 0.001 µM, partner dose 0.4 µM)",168%,72%,198%,146%,59.1%,142%,190%,63.3%,138%,268%,122%,720%,144%,272%,318%,48.5%
"O=C(O)c1ccc2c(c1)nc(Nc1cccc(Cl)c1)c1ccncc12 + CN(NC(=O)CC(=O)NN(C)C(=S)c1ccccc1)C(=S)c1ccccc1 [STA4783] (first compound 0.4 µM, partner dose 0.006 µM)",55%,133%,87.4%,97.1%,66.5%,64.1%,69.5%,36.6%,74.3%,67.4%,70.8%,179%,149%,61.3%,118%,27.8%
"O=C(O)c1ccc2c(c1)nc(Nc1cccc(Cl)c1)c1ccncc12 + Cn1cncc1[C@@](N)(c1ccc(Cl)cc1)c1ccc2c(c1)c(-c1cccc(Cl)c1)cc(=O)n2C [tipifarnib] (first compound 0.4 µM, partner dose 0.01 µM)",139%,217%,138%,48%,31.5%,182%,69.3%,286%,93.9%,118%,198%,177%,107%,143%,153%,139%
"C=C(c1ccc(C(=O)O)cc1)c1cc2c(cc1C)C(C)(C)CCC2(C)C [Bexarotene] + OCCn1cc(-c2cnc3nnn(Cc4ccc5ncccc5c4)c3n2)cn1 [PF04217903] (first compound 2 µM, partner dose 1 µM)",69%,131%,50.9%,49.4%,69%,161%,60.3%,43.1%,31.2%,37.4%,94.9%,116%,105%,125%,98.9%,115%
"O=C(O)[C@@H]1[O][Sb](=[O])([O][Sb]2(=[O])[O][C@H]([C@H](O)CO)[C@H](O)[C@H](C(=O)O)[O]2)[O][C@H]([C@H](O)CO)[C@@H]1O (stereo partly drawn) [stibogluconate] + CC1(C)NC(=O)N(c2ccc([N+](=O)[O-])c(C(F)(F)F)c2)C1=O [nilutamide] (first compound 2 µM, partner dose 1 µM)",122%,86.3%,54.8%,97.8%,244%,87.7%,67.6%,188%,96.5%,39.3%,48.3%,76.1%,160%,66.5%,87.6%,219%
"CC(C)C[C@H](NC(=O)[C@H](Cc1ccccc1)NC(=O)c1cnccn1)B(O)O [Bortezomib] + NC(=O)Nc1cc(-c2cccc(F)c2)sc1C(=O)N[C@H]1CCCNC1 [AZD7762] (first compound 0.001 µM, partner dose 0.02 µM)",91.1%,119%,72.2%,53.5%,56.1%,105%,58.2%,32.8%,15.2%,79.4%,102%,642%,189%,64.1%,387%,60.6%
"CCCS(=O)(=O)Nc1ccc(F)c(C(=O)c2c[nH]c3ncc(Cl)cc23)c1F + COc1cc(N2CCC(N3CCN(C)CC3)CC2)ccc1Nc1ncc(Cl)c(Nc2ccccc2S(=O)(=O)C(C)C)n1 [NVP-TAE684] (first compound 0.08 µM, partner dose 0.08 µM)",218%,142%,69%,108%,173%,57.3%,120%,67.5%,258%,160%,27.6%,92.5%,87.4%,106%,86.9%,138%

# Retrieved one by one from the list above:
SMILES,cleaved PARP positive nuclei fraction (MZ2-MEL),cleaved PARP positive nuclei fraction (MeWo),cleaved PARP positive nuclei fraction (RPMI7951),cleaved PARP positive nuclei fraction (RVH-421),cleaved PARP positive nuclei fraction (SkMel28),cleaved PARP positive nuclei fraction (SkMel2),cleaved PARP positive nuclei fraction (SkMel30),cleaved PARP positive nuclei fraction (SkMel5),cleaved PARP positive nuclei fraction (UACC257),cleaved PARP positive nuclei fraction (UACC62),cleaved PARP positive nuclei fraction (WM115),cleaved PARP positive nuclei fraction (WM1716),cleaved PARP positive nuclei fraction (WM1745),cleaved PARP positive nuclei fraction (WM3526),cleaved PARP positive nuclei fraction (WM3619),cleaved PARP positive nuclei fraction (WM451Lu)
"CCCS(=O)(=O)Nc1ccc(F)c(C(=O)c2c[nH]c3ncc(Cl)cc23)c1F + O=C(Nc1cccc(Cl)c1)Nc1ncc(CCNc2ncnc3ccsc23)s1 [SNS314] (first compound 0.08 µM, partner dose 0.0008 µM)",109%,49.1%,50.6%,45.1%,74%,89.1%,21.7%,50.5%,66.3%,180%,54%,90.3%,101%,83.1%,103%,46.1%
"O=C(O)c1ccc2c(c1)nc(Nc1cccc(Cl)c1)c1ccncc12 + CC(C)CCN1c2nc(Nc3cc(F)c(O)c(F)c3)ncc2N(C)C(=O)C1C [BID1870] (first compound 0.4 µM, partner dose 0.2 µM)",149%,183%,289%,75.7%,151%,134%,167%,91.3%,118%,120%,477%,137%,88%,113%,82.8%,40.6%
